According to article PMC6123711, “Conformational signatures in β-arrestin2 reveal natural biased agonism at a G-protein-coupled receptor” (Communications Biology, 2018):
Results are given in words; binding and its absence hold for the method and conditions named. Binding seen in cells or lysates may run through a third protein. Some binding calls cover weakened binding; strength is not graded here.

Sequences of proteins named here, by UniProt entry; tags and fusion partners are left off. A change or cut given only in a name is not applied to a line headed by its entry. A line that says so, or that is headed by a name, gives the form on record, which may keep a tag or linker.
UniProt P49407: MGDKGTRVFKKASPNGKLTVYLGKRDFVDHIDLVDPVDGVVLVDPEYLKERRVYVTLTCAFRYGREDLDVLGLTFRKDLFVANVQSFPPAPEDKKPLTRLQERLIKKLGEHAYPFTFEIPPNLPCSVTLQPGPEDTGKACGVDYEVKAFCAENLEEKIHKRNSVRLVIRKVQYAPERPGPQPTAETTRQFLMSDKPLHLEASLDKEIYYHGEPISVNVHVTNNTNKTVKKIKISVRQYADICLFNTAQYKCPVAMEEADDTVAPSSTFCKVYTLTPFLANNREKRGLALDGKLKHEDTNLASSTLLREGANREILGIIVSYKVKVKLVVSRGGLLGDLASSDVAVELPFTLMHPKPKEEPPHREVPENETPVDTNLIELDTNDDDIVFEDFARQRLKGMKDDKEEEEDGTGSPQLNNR
UniProt P32121: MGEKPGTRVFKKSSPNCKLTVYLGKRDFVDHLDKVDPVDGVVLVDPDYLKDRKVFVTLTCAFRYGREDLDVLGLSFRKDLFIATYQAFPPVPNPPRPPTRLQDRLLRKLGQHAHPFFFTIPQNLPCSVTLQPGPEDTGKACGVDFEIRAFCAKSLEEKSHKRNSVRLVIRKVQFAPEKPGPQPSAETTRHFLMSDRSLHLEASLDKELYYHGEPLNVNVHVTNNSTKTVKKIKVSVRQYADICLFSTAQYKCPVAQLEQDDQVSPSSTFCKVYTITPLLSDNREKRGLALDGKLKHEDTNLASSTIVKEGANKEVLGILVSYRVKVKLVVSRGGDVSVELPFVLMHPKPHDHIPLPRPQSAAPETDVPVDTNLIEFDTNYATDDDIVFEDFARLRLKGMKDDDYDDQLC
β-arrestin2–FlasH2 (NanoBit construct) (P32121, form named): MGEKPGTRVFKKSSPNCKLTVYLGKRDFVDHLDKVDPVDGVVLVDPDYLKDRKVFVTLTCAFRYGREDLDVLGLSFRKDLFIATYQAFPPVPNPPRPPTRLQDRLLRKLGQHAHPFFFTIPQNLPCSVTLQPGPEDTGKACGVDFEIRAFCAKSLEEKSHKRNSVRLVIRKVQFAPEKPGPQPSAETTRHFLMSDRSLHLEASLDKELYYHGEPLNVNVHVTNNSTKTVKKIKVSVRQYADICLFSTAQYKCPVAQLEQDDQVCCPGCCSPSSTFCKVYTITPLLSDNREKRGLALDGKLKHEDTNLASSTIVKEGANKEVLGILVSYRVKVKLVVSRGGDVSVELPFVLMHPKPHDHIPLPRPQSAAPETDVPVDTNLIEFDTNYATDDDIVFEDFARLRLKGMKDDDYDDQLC
β-arrestin2–FlasH1 (NanoBit construct) (P32121, form named): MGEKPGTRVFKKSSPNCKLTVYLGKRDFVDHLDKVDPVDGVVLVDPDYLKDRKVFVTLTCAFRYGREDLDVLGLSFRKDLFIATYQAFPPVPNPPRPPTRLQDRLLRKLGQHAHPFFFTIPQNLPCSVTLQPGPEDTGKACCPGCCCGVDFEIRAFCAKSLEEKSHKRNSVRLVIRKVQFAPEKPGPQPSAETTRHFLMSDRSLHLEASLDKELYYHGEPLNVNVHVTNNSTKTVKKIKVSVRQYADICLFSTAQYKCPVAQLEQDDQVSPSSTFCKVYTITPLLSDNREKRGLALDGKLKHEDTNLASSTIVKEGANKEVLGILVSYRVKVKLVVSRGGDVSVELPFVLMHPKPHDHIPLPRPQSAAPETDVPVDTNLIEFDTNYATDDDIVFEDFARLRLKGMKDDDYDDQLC

Each substance was assayed against T1, human galanin receptor 2 (Galr2) containing the LgBiT at the C terminus (human) (UniProt O43603) (assay: split reporter; NanoBit complementation in live HEK293 cells transiently transfected with Galr2 and a β-arrestin construct, one with LgBit and one with SmBit; OPTIMEM, room temperature, furimazine; luminescence every minute after adding Galanin, Spexin or Fmoc-dA4-dQ14 (1 μM for the kinetic traces; dose–response at 5 min)).
T1 sequence: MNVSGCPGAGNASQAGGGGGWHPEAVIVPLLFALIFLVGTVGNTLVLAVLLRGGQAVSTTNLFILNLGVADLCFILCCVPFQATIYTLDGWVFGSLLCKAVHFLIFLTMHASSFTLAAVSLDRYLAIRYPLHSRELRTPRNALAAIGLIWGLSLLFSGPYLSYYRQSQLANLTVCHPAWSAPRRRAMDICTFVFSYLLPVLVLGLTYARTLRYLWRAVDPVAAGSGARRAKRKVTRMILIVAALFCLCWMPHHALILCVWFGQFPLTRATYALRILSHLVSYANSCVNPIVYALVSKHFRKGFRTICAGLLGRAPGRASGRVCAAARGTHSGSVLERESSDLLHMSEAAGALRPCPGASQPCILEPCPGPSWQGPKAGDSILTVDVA

Substance | binding
β-arrestin1 fused to a NanoBiT subunit (from UniProt P49407 1-418) | binds
β-arrestin2–FlasH2 (NanoBit construct) (from UniProt P32121 1-263; P32121 264-409) | binds
β-arrestin2 construct containing the SmBit (from UniProt P32121 1-409) | binds
β-arrestin2–FlasH1 (NanoBit construct) (from UniProt P32121 1-140; P32121 141-409) | binds
